PubChem BioAssay AID1671195, Yale University, 2021

Aim: 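Regulators of LDL receptor activity judged by labelled LDL uptake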 (primary screen)
Cell system: human Huh7 hepatoma cells
Reagent: siRNA pool against human genes, 18 nM
Duration: about 2 to 2.5 days of knockdown, then 8 h LDL uptake
Challenge: DiI-labelled LDL at 30 µg/ml for 8 h, in lipoprotein-deficient serum medium
Measured: 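Per-cell DiI-LDL intensity by automated imaging; well means scaled to the plate median and given as a robust z-score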
Direction: robust z-score: higher = more LDL uptake after knockdown
Active means: 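Active when two or more replicates show a robust z-score above 2 or below -2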
The deposit covers about 22,000 reagents; below is a random part of them. Over the whole deposit, about 1,510 (6.9%) are marked active. 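Active includes knockdowns raising or lowering LDL uptake; positive z-scores mean more uptake, negative mean less.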 Unmarked entries are inactive. Reagent sequences are not shown.

With knock-down of CPSF2, the record shows robust z-score, replicate 1 = 3.68 (active); robust z-score, replicate 2 = 2.27; robust z-score, replicate 3 = 3.06.
CRAMP1 showed robust z-score, replicate 1 = -0.416; robust z-score, replicate 2 = -1.33; robust z-score, replicate 3 = -1.43.
KDELR1 gave robust z-score, replicate 1 = 0.184; robust z-score, replicate 2 = -0.334; robust z-score, replicate 3 = -0.0586.
Depletion of BIN3 gave: robust z-score, replicate 1 = 4.84 (active); robust z-score, replicate 2 = 5.02; robust z-score, replicate 3 = 3.62.
BANK1 showed robust z-score, replicate 1 = -0.684; robust z-score, replicate 2 = -0.537; robust z-score, replicate 3 = -0.603.
Silencing of LOC389031 (retired record) resulted in: robust z-score, replicate 1 = -1.67; robust z-score, replicate 2 = -1.98; robust z-score, replicate 3 = -1.7.
For CCL21, the entry reads robust z-score, replicate 1 = 0.167; robust z-score, replicate 2 = 0.459; robust z-score, replicate 3 = 0.575.
Knock-down of ENTPD7 gave: robust z-score, replicate 1 = -1.51; robust z-score, replicate 2 = -0.285; robust z-score, replicate 3 = -0.189.
STAT5A gave robust z-score, replicate 1 = 1.27; robust z-score, replicate 2 = 0.989; robust z-score, replicate 3 = 0.821.
Depletion of SIRT7 came out at: robust z-score, replicate 1 = -0.268; robust z-score, replicate 2 = -0.655; robust z-score, replicate 3 = -0.406.
Silencing of ZNF600 came out at: robust z-score, replicate 1 = 0.545; robust z-score, replicate 2 = 0.631; robust z-score, replicate 3 = 0.00715.
For KDM5B, the values are robust z-score, replicate 1 = -1.37; robust z-score, replicate 2 = -1.3; robust z-score, replicate 3 = -1.22.
Depletion of FER1L6-AS2 resulted in: robust z-score, replicate 1 = -0.186; robust z-score, replicate 2 = -0.106; robust z-score, replicate 3 = -0.51.
After knock-down of TRMT13, the record shows robust z-score, replicate 1 = 0.872; robust z-score, replicate 2 = 0.417; robust z-score, replicate 3 = -0.016.
After knock-down of AGA-DT, the record shows robust z-score, replicate 1 = -1.15; robust z-score, replicate 2 = -0.691; robust z-score, replicate 3 = -0.913.
For BCKDHB, the values are robust z-score, replicate 1 = 1.59; robust z-score, replicate 2 = 1.53; robust z-score, replicate 3 = 1.9.
For SPACA5, the entry reads robust z-score, replicate 1 = -0.948; robust z-score, replicate 2 = -0.951; robust z-score, replicate 3 = -1.21.
Against RNF170 the deposit lists robust z-score, replicate 1 = -0.198; robust z-score, replicate 2 = 0.406; robust z-score, replicate 3 = 0.654.
Against LRRC4, the entry reads robust z-score, replicate 1 = 1.24; robust z-score, replicate 2 = 1; robust z-score, replicate 3 = 0.491.
BCAN gave robust z-score, replicate 1 = 0.821; robust z-score, replicate 2 = 1.08; robust z-score, replicate 3 = 0.567.
With knock-down of XRCC1, the record shows robust z-score, replicate 1 = 0.599; robust z-score, replicate 2 = 0.845; robust z-score, replicate 3 = 1.17.
After knock-down of TNFRSF9, the record shows robust z-score, replicate 1 = -1.34; robust z-score, replicate 2 = -1.84; robust z-score, replicate 3 = -1.65.
LINC00511 showed robust z-score, replicate 1 = -0.137; robust z-score, replicate 2 = 0.24; robust z-score, replicate 3 = 0.53.
Knock-down of OTOL1 resulted in: robust z-score, replicate 1 = 0.131; robust z-score, replicate 2 = 0.906; robust z-score, replicate 3 = 0.891.

An excerpt from the list above, as a working copy:
TNFRSF9 — robust z-score, replicate 1: -1.34; robust z-score, replicate 2: -1.84; robust z-score, replicate 3: -1.65
LINC00511 — robust z-score, replicate 1: -0.137; robust z-score, replicate 2: 0.24; robust z-score, replicate 3: 0.53
